Laboratory results: the supplement of paper PMC12819154, “High-throughput peptide-centric local stability assay extends protein–ligand identification to membrane proteins, tissues and bacteria” (Nature Structural & Molecular Biology, 2025)
This is one part of the list. Most values lie at the level of the controls, where differences are scatter.

The chains behind the UniProt entries cited, without tags or fusion partners. Where a name states a change or a piece, a line headed by the entry shows the natural chain unless it says otherwise.
UniProt Q5TA31: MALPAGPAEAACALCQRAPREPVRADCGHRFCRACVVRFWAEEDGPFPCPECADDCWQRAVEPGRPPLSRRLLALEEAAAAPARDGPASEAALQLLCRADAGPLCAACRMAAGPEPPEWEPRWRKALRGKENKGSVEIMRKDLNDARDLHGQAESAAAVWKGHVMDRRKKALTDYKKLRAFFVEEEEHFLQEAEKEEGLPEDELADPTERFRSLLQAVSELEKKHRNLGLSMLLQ
UniProt Q5SWA1: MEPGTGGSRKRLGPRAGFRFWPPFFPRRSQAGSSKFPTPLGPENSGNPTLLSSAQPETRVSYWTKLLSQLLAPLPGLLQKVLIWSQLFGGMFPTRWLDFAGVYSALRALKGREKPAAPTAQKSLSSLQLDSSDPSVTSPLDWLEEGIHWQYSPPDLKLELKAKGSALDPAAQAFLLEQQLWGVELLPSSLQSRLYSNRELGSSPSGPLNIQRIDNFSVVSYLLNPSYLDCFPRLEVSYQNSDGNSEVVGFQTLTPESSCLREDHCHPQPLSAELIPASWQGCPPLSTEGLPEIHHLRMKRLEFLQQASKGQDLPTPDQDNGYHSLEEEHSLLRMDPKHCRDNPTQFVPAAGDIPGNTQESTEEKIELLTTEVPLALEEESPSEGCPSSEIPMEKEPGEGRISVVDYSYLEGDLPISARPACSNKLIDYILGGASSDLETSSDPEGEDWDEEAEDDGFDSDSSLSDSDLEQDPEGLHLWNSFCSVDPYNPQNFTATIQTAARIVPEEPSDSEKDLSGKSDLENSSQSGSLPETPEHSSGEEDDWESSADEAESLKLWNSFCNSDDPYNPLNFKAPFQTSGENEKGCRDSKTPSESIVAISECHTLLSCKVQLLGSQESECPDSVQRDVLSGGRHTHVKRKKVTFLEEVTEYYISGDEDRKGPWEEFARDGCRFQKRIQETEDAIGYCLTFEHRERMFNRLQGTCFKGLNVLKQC
UniProt Q53EZ4: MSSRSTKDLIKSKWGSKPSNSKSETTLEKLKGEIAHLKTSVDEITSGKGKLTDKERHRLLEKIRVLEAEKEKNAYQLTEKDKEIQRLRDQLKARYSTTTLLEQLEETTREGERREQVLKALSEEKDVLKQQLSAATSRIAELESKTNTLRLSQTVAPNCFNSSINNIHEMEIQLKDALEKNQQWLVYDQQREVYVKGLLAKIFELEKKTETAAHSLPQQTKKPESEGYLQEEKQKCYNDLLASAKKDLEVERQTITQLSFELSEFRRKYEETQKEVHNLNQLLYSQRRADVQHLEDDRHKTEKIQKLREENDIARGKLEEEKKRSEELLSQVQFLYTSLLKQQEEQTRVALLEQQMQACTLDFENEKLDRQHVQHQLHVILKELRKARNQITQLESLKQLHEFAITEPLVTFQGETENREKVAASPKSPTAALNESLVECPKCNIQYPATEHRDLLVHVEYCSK
UniProt Q3ZAQ7: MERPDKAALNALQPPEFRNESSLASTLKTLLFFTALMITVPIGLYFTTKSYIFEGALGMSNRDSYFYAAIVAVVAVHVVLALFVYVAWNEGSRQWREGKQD
UniProt Q5R3I4: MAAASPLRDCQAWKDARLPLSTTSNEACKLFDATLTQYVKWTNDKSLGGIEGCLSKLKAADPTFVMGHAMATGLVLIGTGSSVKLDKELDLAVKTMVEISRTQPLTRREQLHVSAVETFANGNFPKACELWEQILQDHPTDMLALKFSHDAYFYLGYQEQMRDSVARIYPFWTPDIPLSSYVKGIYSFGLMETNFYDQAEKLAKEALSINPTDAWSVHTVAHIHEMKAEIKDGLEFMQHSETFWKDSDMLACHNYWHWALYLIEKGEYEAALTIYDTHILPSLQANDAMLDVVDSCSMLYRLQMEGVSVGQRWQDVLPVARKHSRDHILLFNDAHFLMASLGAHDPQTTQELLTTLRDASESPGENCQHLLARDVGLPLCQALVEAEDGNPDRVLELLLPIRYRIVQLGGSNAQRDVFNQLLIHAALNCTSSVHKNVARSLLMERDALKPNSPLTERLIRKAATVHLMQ
UniProt Q5BJF6: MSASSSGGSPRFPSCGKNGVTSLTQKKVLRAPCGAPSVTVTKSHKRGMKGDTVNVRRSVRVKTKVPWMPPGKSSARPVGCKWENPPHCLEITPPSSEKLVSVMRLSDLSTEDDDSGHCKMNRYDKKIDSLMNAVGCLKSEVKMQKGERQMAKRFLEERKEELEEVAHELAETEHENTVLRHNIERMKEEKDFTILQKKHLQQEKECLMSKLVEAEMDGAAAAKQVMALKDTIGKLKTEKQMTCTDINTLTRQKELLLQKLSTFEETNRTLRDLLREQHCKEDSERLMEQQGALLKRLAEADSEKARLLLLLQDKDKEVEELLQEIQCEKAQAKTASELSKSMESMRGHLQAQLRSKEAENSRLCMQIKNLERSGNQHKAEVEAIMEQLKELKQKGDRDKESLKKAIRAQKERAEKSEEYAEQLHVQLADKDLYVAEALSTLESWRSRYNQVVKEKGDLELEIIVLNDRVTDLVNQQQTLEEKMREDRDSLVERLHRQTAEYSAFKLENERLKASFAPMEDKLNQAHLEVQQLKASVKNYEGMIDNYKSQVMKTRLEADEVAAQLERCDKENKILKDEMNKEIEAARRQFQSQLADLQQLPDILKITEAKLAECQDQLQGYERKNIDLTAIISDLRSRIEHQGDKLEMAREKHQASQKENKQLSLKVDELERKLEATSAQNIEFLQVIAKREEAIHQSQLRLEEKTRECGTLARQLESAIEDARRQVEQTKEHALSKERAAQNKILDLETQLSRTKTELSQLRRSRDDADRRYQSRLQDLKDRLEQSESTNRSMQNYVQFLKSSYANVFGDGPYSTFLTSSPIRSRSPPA
UniProt Q496Y0: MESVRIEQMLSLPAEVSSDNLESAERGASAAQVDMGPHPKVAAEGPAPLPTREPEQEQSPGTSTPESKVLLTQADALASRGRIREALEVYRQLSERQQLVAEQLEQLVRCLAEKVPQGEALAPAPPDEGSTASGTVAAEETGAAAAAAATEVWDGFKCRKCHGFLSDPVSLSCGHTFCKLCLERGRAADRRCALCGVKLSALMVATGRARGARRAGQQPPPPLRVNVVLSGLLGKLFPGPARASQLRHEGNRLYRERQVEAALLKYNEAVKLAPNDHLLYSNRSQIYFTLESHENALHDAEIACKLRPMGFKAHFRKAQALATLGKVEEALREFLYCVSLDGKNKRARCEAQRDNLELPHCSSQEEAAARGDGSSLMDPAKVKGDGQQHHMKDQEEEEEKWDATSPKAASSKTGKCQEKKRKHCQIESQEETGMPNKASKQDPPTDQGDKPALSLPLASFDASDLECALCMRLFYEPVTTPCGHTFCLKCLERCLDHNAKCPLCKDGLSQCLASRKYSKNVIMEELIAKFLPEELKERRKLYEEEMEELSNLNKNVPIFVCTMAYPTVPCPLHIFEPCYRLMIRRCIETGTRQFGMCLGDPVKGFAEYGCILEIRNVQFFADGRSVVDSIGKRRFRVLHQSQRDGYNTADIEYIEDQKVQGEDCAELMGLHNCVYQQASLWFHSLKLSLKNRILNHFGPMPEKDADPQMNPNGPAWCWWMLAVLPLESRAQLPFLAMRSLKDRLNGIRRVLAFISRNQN
UniProt Q5TYM5, whole entry: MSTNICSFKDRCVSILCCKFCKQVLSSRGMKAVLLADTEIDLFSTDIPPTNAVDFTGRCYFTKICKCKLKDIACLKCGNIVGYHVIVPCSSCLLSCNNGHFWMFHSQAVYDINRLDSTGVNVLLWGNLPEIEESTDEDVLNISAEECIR
UniProt Q5T124: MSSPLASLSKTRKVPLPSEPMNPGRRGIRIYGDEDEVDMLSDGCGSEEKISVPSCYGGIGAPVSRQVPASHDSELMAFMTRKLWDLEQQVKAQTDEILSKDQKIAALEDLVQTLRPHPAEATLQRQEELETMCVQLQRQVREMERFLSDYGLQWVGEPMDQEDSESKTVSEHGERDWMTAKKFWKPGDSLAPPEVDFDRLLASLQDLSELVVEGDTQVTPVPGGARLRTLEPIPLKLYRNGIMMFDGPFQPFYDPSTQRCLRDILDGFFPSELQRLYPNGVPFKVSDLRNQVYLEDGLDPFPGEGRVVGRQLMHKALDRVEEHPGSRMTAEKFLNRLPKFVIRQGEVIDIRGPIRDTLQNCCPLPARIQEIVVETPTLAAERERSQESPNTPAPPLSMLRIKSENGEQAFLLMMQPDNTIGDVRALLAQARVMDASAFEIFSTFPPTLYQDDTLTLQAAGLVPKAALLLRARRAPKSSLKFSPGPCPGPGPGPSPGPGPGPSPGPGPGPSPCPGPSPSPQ

Compound: Cc1nc(Nc2ncc(C(=O)Nc3c(C)cccc3Cl)s2)cc(N2CCN(CCO)CC2)n1 [dasatinib]
Test: log2 fold change of tryptic peptide abundance, ligand vs vehicle (limited proteolysis) (log2 ratio); higher = more trypsin-susceptible (destabilized)
Conditions: ligand concentration: 5 uM; sample: K562 cleared lysate

Row | Target | log2 fold change
1 | RNF187 (peptide sequence: SLLQAVSELEK, peptide start residue: 213) (UniProt Q5TA31) | -0.119
2 | PPP1R15B (peptide sequence: APFQTSGENEKGCRDSK, peptide start residue: 573) (UniProt Q5SWA1) | 0.5
3 | CEP55 (peptide sequence: QKCYNDLLASAK, peptide start residue: 234) (UniProt Q53EZ4) | -0.4
4 | VMA21 (peptide sequence: AALNALQPPEFR, peptide start residue: 7) (UniProt Q3ZAQ7) | 0.0619
5 | TTC38 (peptide sequence: DASESPGENCQHLLAR, peptide start residue: 358) (UniProt Q5R3I4) | 0.276
6 | ODF2 (peptide sequence: EQHCKEDSER, peptide start residue: 276) (UniProt Q5BJF6) | 0.472
7 | UniProt Q496Y0 (peptide sequence: KHCQIESQEETGMPNK, peptide start residue: 422) | 0.724
8 | UniProt Q5TYM5 (peptide sequence: STNICSFKDR, peptide start residue: 2) | -0.202
9 | UniProt Q5T124 (peptide sequence: TLEPIPLK, peptide start residue: 229) | -0.172

Numbers 1 to 2 from above:
Row | Target | log2 fold change
1 | RNF187 (peptide sequence: SLLQAVSELEK, peptide start residue: 213) (UniProt Q5TA31) | -0.119
2 | PPP1R15B (peptide sequence: APFQTSGENEKGCRDSK, peptide start residue: 573) (UniProt Q5SWA1) | 0.5
